For at least one compound, name, drawing or mass did not settle the structure.
Test: Antigen / drug loading efficiency in HDL nanodiscs (HPLC/MS)
Type: physicochemical
Details: HPLC-MS
Description: HDL nanodisc was prepared as previously described. Briefly, DMPC was dissolved in chloroform, which was evaporated with nitrogen flow and under vacuum for at least 1 h. The resulting lipid film was hydrated in 10 mM sodium phosphate buffer and sonicated in a bath sonicator for 10 min. ApoA1 mimetic peptide 22A dissolved in endotoxin free water was added to the above mixture (22A:DMPC=1:2 weight ratio) to obtain nanodiscs. To load MOG antigen peptide in nanodiscs, each antigen peptide was reacted with 4-(4-maleimidophenyl)-butyric DOPE for 3 h in dimethylformamide (DMF), which was removed by freeze-drying after dilution 10× with endotoxin-free water. […] The conjugation efficiency of MOG peptide was determined by LC-MS and gel permeation chromatography (GPC). […] Mice were weighed and scored daily based on the following guideline: 0, no sign of disease; 1, loss of tone in the tail; 2, hind limb paresis; 3, hind limb paralysis; 4, tetraplegia; and 5, moribund.
To produce HDL nanodiscs carrying immunomodulatory drugs, 22A, and DMPC were dissolved in acetic acid and freeze-dried overnight as shown above. […] The concentration of each drug was measured by HPLC-MS as shown for FTY720, ITE, TSA, or SAHA (FIGS. 14-17, respectively). […] Samples were also analyzed by dynamic light scattering (DLS) for the particle sizes. […] We also analyzed HDL-FTY720 samples using gel permeation chromatography (GPC) (FIG. 19). […]

CCCCCCCCc1ccc(CCC(N)(CO)CO)cc1 [FTY720, Fingolimod]
drug encapsulate efficiencies: ~90%

— patent publication US20230001010A1, “COMPOSITIONS AND METHODS FOR TREATING AUTOIMMUNE DISORDERS” (The Regents of the University of Michigan, priority 2019, published 2023)
